Laboratory results reported in patent publication US20220033904A1.

Columns and labels:
FZD7 [1] = assay: co-IP, immunoblot (FIG. 3G)
FZD1 [2] = assay: co-IP, immunoblot (FIG. 3G)
FZD8 [3] = assay: co-IP, immunoblot (FIG. 3G)
FZD4 [4] = assay: co-IP, immunoblot (FIG. 3G)
FZD3 [5] = assay: co-IP, immunoblot (FIG. 3G)
FZD6 [6] = assay: co-IP, immunoblot (FIG. 3G)
SMO = assay: co-IP, immunoblot (FIG. 3G)
FZD2 [7] = assay: co-IP, immunoblot (FIG. 3G)
FZD7 [8] = assay: co-IP, immunoblot (recap of FIG. 3G)
FZD1 [9] = assay: co-IP, immunoblot (recap of FIG. 3G)
FZD8 [10] = assay: co-IP, immunoblot (recap of FIG. 3G)
FZD4 [11] = assay: co-IP, immunoblot (recap of FIG. 3G)
FZD3 [12] = assay: co-IP, immunoblot (recap of FIG. 3G)
FZD6 [13] = assay: co-IP, immunoblot (recap of FIG. 3G)
FZD2 [14] = assay: co-IP, immunoblot (recap of FIG. 3G)

binding (FZD7 [1]): binds | binding (FZD1 [2]): binds | binding (FZD8 [3]): binds | binding (FZD4 [4]): binds | binding (FZD3 [5]): binds | binding (FZD6 [6]): binds | binding (SMO): no binding | binding (FZD2 [7]): binds | binding (FZD7 [8]): binds | binding (FZD1 [9]): binds | binding (FZD8 [10]): binds | binding (FZD4 [11]): binds | binding (FZD3 [12]): binds | binding (FZD6 [13]): binds | binding (FZD2 [14]): binds
B1: TMEM79 (protein, not shown: small tags and cut ends)
chain: MTEPETLALLDMKEPETPEKSPPQALVLQSEEEGGTESPGTESLRVGSSVGSPIVREGPEDGPDSTISEAATLPWGTDPHPSAPLPDPPGWRDIEPEPLESEAPTKSEEPFKEDANLLPEKTVRAFVPIDLQCIERKPQEERILHRDAGPGELRNFLPARLSHPEPPERKWAEAVVRPPGRSCGGCGSCGGREALRAVASVVAALIFFPCLLYGAYAFLPFDAPRLPTMSSRLVYTLRCGVFATFPIVLGLLVYGLSLLCFSALRPFGEPRREVEIHRQYVAQSVQLFILYFFNLAVLSTYLPQDTLKLLPLLTGLFAISRLIYWLTFAVGRSFRGFGYGLTFLPLLAMLVWNLYYMFVVEPERMLTASESRLDYPDHARSVSDYRPRSWG

These are yes or no findings as the source states them, for the method shown. Binding seen in cells or lysates may run through a third protein. For part of these data: Binding calls can cover weak binding; strength is not graded here.
